# Data as given in the supplement of paper PMC12823440, “Inhibitors supercharge kinase turnover through native proteolytic circuits” (Nature, 2025).
# Protein sequences, listed by entry. Tags and fused reporters are not part of them. Lines headed by an entry give the natural chain unless they say otherwise; changes in a name come on top.
# UniProt Q15208: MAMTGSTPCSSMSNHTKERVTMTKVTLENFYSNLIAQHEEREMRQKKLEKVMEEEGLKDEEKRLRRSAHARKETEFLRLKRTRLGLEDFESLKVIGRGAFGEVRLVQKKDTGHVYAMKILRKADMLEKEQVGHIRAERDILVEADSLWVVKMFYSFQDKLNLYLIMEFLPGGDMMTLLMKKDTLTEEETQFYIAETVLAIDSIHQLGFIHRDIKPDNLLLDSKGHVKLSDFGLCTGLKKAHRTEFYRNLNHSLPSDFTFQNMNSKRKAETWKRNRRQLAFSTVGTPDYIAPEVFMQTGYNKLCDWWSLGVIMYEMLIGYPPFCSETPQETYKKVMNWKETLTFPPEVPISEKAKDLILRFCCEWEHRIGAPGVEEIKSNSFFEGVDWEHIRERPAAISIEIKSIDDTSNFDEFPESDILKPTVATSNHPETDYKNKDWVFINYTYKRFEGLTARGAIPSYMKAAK
# UniProt P42680: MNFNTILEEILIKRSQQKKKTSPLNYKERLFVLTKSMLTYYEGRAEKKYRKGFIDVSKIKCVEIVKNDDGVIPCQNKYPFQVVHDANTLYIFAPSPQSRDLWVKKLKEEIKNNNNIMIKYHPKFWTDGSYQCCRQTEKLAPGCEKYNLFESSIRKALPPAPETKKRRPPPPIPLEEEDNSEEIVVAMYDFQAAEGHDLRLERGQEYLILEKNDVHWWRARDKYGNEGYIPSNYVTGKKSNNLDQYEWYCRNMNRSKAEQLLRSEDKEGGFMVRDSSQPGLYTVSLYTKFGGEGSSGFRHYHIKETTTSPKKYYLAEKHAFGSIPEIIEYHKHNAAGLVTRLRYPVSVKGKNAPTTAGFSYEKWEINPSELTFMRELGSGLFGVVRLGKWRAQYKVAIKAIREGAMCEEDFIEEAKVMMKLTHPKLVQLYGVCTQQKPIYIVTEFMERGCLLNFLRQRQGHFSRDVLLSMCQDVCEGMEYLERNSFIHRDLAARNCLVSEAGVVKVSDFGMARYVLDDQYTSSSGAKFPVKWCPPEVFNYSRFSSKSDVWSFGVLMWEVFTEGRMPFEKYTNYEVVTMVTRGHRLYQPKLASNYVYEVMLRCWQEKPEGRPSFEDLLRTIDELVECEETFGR
# UniProt P29597: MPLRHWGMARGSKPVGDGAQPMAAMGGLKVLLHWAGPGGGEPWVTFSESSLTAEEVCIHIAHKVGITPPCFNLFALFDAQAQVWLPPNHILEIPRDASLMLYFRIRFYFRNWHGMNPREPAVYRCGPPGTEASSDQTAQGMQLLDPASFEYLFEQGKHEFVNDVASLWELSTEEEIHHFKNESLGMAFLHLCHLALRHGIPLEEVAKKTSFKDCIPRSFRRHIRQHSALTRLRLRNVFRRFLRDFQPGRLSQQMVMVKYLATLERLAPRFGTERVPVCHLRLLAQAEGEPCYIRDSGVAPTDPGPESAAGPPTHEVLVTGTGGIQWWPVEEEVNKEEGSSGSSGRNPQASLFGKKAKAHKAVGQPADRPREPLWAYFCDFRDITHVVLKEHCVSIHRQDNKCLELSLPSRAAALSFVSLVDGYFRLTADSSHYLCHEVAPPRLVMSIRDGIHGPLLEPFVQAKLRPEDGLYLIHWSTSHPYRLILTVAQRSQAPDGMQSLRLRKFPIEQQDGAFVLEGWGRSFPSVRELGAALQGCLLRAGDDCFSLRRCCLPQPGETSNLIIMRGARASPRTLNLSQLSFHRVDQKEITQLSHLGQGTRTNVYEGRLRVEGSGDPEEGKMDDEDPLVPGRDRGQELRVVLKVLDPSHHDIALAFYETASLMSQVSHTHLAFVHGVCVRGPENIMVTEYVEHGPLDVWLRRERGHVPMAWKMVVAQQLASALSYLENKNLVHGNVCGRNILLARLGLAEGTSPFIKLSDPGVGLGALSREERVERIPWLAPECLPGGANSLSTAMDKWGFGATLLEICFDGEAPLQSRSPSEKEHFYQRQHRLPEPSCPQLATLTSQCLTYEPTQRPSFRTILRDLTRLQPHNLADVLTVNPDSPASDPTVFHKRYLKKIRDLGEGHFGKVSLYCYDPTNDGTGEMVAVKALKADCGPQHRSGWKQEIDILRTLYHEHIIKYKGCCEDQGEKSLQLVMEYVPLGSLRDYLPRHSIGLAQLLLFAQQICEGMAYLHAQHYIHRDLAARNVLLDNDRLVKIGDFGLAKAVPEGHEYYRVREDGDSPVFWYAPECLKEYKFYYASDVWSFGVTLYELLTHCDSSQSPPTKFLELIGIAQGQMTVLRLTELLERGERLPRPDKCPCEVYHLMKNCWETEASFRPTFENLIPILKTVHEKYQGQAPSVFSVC
# UniProt Q6PHR2: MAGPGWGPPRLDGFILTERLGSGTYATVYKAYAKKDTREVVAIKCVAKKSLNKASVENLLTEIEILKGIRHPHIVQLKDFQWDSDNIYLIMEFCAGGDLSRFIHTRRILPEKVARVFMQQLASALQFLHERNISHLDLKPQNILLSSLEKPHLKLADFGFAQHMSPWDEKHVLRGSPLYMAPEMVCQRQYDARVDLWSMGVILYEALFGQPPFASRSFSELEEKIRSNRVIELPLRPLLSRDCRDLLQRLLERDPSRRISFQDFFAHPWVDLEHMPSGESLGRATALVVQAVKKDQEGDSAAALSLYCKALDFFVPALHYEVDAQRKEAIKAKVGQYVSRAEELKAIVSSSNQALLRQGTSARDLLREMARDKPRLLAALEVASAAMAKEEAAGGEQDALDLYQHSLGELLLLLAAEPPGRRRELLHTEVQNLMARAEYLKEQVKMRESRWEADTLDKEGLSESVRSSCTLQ
# UniProt P07947, whole entry, looked up: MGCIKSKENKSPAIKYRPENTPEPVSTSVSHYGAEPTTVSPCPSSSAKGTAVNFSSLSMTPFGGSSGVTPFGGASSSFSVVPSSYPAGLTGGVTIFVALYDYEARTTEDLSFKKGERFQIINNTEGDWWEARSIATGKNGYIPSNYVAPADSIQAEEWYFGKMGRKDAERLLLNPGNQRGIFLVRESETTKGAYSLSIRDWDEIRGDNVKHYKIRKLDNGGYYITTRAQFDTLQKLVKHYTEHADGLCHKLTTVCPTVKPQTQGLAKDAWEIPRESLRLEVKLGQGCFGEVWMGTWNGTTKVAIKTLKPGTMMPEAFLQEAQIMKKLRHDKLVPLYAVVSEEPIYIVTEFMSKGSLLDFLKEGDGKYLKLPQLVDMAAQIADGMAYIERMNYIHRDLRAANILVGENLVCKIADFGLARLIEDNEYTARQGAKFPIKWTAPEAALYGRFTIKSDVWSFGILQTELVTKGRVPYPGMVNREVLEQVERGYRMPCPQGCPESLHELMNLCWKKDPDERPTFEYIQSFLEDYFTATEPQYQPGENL
# UniProt P43403: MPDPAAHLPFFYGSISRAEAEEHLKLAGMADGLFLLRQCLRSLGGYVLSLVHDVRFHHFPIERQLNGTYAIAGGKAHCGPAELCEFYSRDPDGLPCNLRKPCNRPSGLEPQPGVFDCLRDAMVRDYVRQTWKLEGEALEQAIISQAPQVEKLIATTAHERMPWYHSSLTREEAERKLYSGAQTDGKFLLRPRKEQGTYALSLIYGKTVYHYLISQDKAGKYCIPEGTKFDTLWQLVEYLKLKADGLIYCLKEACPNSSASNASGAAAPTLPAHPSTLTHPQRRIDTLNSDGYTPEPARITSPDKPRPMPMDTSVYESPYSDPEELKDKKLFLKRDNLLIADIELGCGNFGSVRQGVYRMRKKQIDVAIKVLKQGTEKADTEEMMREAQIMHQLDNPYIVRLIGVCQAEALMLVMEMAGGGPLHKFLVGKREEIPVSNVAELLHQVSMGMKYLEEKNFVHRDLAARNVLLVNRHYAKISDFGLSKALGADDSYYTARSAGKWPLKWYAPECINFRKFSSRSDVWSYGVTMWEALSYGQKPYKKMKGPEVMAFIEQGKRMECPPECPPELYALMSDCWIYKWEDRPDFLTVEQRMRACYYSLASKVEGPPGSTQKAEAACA
# UniProt P11802: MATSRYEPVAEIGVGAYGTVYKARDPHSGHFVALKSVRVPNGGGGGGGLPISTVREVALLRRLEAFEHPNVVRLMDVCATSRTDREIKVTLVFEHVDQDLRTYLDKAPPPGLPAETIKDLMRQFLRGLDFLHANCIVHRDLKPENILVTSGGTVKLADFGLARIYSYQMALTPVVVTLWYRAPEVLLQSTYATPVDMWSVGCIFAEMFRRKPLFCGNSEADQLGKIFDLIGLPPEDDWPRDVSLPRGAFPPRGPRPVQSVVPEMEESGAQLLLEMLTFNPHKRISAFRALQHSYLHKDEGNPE
# UniProt P50613: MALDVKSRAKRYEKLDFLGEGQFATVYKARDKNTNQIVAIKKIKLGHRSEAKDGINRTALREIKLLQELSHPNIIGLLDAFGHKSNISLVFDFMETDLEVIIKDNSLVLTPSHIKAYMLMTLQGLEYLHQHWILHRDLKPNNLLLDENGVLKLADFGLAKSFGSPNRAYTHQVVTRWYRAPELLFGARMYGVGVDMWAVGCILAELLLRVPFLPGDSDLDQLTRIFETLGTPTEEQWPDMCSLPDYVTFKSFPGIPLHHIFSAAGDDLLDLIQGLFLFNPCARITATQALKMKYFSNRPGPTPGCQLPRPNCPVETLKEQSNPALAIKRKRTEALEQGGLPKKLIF
# UniProt P50750, whole entry: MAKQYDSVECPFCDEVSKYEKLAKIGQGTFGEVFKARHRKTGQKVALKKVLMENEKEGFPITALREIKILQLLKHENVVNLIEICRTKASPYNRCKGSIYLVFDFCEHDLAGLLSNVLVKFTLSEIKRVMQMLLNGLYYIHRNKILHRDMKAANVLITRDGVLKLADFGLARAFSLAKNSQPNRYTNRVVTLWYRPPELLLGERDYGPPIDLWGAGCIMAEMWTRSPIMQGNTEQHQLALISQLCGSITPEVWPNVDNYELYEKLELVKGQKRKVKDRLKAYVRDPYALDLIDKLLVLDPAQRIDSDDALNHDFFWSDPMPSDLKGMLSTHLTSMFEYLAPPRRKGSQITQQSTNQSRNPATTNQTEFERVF
# Counter-ions that a name gives are not always drawn. The list shows a part of the results. The calls rarely recur for the same compound in another form.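 Kinases were expressed as nanoluciferase fusions in K562 cells and luminescence was read every 4 h between 2 and 18 h as percent of control, DMSO set to 100% and a positive control to 0%. A time point counts as decreased when the signal drops significantly (2 sigma). The hit call is the authors' own, does not follow from the count of time points alone, and its rule is not shown.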
# Legend:
# Conditions in all cases: K562, 2-18 h
# STK38 = STK38 (UniProt Q15208); assay: kinase-Nluc reporter destabilization hit call (1 = scored as downregulated) (binary); higher = compound decreases kinase abundance
# SYK = SYK (UniProt P43405); assay: as above
# TEC = TEC (UniProt P42680); assay: as above
# TYK2 = TYK2 (UniProt P29597); assay: as above
# ULK3 = ULK3 (UniProt Q6PHR2); assay: as above
# YES1 = YES1 (UniProt P07947); assay: as above
# ZAK = ZAK (UniProt Q9NYL2); assay: as above
# ZAP70 = ZAP70 (UniProt P43403); assay: as above
# CDK4 = CDK4 (UniProt P11802); assay: number of time points (of 4; 2 h point missing) at which kinase-Nluc abundance scored as decreased, DMSO-normalised (count); higher = more persistent destabilization
# CDK7 = CDK7 (UniProt P50613); assay: as above
# CDK9 = CDK9 (UniProt P50750); assay: as above
smiles,measurement,setting,value
O=C(c1nn(-c2ccc(CN3CCOCC3)cc2)c2c1CS(=O)(=O)c1c(F)cccc1-2)N1CCOCC1,kinase-Nluc reporter destabilization hit call,STK38; 10 µM,inactive: 0
same,kinase-Nluc reporter destabilization hit call,SYK; 10 µM,inactive: 0
same,kinase-Nluc reporter destabilization hit call,TEC; 10 µM,inactive: 0
same,kinase-Nluc reporter destabilization hit call,TYK2; 10 µM,inactive: 0
same,kinase-Nluc reporter destabilization hit call,ULK3; 10 µM,inactive: 0
same,kinase-Nluc reporter destabilization hit call,YES1; 10 µM,inactive: 0
same,kinase-Nluc reporter destabilization hit call,ZAK; 10 µM,inactive: 0
same,kinase-Nluc reporter destabilization hit call,ZAP70; 10 µM,inactive: 0
same,number of time points,CDK4; 10 µM,0
same,number of time points,CDK7; 10 µM,0
same,number of time points,CDK9; 10 µM,0
CC(=O)Nc1cccc(-n2c(=O)n(C3CC3)c(=O)c3c(Nc4ccc(I)cc4F)n(C)c(=O)c(C)c32)c1 [Trametinib],kinase-Nluc reporter destabilization hit call,STK38; 10 µM,inactive: 0
same,kinase-Nluc reporter destabilization hit call,SYK; 10 µM,inactive: 0
same,kinase-Nluc reporter destabilization hit call,TEC; 10 µM,inactive: 0
same,kinase-Nluc reporter destabilization hit call,TYK2; 10 µM,active: 1
same,kinase-Nluc reporter destabilization hit call,ULK3; 10 µM,inactive: 0
same,kinase-Nluc reporter destabilization hit call,YES1; 10 µM,inactive: 0
same,kinase-Nluc reporter destabilization hit call,ZAK; 10 µM,inactive: 0
same,kinase-Nluc reporter destabilization hit call,ZAP70; 10 µM,inactive: 0
same,number of time points,CDK4; 10 µM,3
same,number of time points,CDK7; 10 µM,3
same,number of time points,CDK9; 10 µM,4
OCCn1cc(-c2cnc3nnn(Cc4ccc5ncccc5c4)c3n2)cn1,kinase-Nluc reporter destabilization hit call,STK38; 10 µM,inactive: 0
same,kinase-Nluc reporter destabilization hit call,SYK; 10 µM,inactive: 0
same,kinase-Nluc reporter destabilization hit call,TEC; 10 µM,inactive: 0
same,kinase-Nluc reporter destabilization hit call,TYK2; 10 µM,inactive: 0
same,kinase-Nluc reporter destabilization hit call,ULK3; 10 µM,inactive: 0
same,kinase-Nluc reporter destabilization hit call,YES1; 10 µM,inactive: 0
same,kinase-Nluc reporter destabilization hit call,ZAK; 10 µM,inactive: 0
same,kinase-Nluc reporter destabilization hit call,ZAP70; 10 µM,inactive: 0
same,number of time points,CDK4; 10 µM,0
same,number of time points,CDK7; 10 µM,0
same,number of time points,CDK9; 10 µM,0
CC(C)Oc1ccc(-c2nn([C@@H](C)c3oc4ccc(F)cc4c(=O)c3-c3cccc(F)c3)c3ncnc(N)c23)cc1F [Umbralisib],kinase-Nluc reporter destabilization hit call,STK38; 2.5 µM,inactive: 0
same,kinase-Nluc reporter destabilization hit call,SYK; 2.5 µM,inactive: 0
same,kinase-Nluc reporter destabilization hit call,TEC; 2.5 µM,inactive: 0
same,kinase-Nluc reporter destabilization hit call,TYK2; 2.5 µM,inactive: 0
same,kinase-Nluc reporter destabilization hit call,ULK3; 2.5 µM,inactive: 0
same,kinase-Nluc reporter destabilization hit call,YES1; 2.5 µM,inactive: 0
same,kinase-Nluc reporter destabilization hit call,ZAK; 2.5 µM,inactive: 0
same,kinase-Nluc reporter destabilization hit call,ZAP70; 2.5 µM,inactive: 0
same,number of time points,CDK4; 2.5 µM,0
same,number of time points,CDK7; 2.5 µM,0
same,number of time points,CDK9; 2.5 µM,0
C[C@H](Nc1cc(-c2cnn(C)c2)cc(Nc2cnccn2)n1)c1ccc(F)cc1 [Ilginatinib hydrochloride],kinase-Nluc reporter destabilization hit call,STK38; 2.5 µM,inactive: 0
same,kinase-Nluc reporter destabilization hit call,SYK; 2.5 µM,inactive: 0
same,kinase-Nluc reporter destabilization hit call,TEC; 2.5 µM,inactive: 0
same,kinase-Nluc reporter destabilization hit call,TYK2; 2.5 µM,inactive: 0
same,kinase-Nluc reporter destabilization hit call,ULK3; 2.5 µM,inactive: 0
same,kinase-Nluc reporter destabilization hit call,YES1; 2.5 µM,inactive: 0
same,kinase-Nluc reporter destabilization hit call,ZAK; 2.5 µM,inactive: 0
same,kinase-Nluc reporter destabilization hit call,ZAP70; 2.5 µM,inactive: 0
same,number of time points,CDK4; 2.5 µM,0
same,number of time points,CDK7; 2.5 µM,4
same,number of time points,CDK9; 2.5 µM,0
CNC(=O)c1ccccc1Nc1cc(Nc2ccc(N3CCOCC3)cc2OC)ncc1C(F)(F)F,kinase-Nluc reporter destabilization hit call,STK38; 10 µM,inactive: 0
same,kinase-Nluc reporter destabilization hit call,SYK; 10 µM,inactive: 0
same,kinase-Nluc reporter destabilization hit call,TEC; 10 µM,inactive: 0
same,kinase-Nluc reporter destabilization hit call,TYK2; 10 µM,inactive: 0
same,kinase-Nluc reporter destabilization hit call,ULK3; 10 µM,inactive: 0
same,kinase-Nluc reporter destabilization hit call,YES1; 10 µM,inactive: 0
same,kinase-Nluc reporter destabilization hit call,ZAK; 10 µM,inactive: 0
same,kinase-Nluc reporter destabilization hit call,ZAP70; 10 µM,inactive: 0
same,number of time points,CDK4; 10 µM,0
same,number of time points,CDK7; 10 µM,0
same,number of time points,CDK9; 10 µM,0
COc1cc2c(-c3cnn4cc(N5CCC(N6CCN(C)CC6)CC5)cnc34)ccnc2cc1F [ALK2-IN-4 (succinate)],kinase-Nluc reporter destabilization hit call,STK38; 10 µM,inactive: 0
same,kinase-Nluc reporter destabilization hit call,SYK; 10 µM,inactive: 0
same,kinase-Nluc reporter destabilization hit call,TEC; 10 µM,inactive: 0
same,kinase-Nluc reporter destabilization hit call,TYK2; 10 µM,inactive: 0
same,kinase-Nluc reporter destabilization hit call,ULK3; 10 µM,inactive: 0
same,kinase-Nluc reporter destabilization hit call,YES1; 10 µM,inactive: 0
same,kinase-Nluc reporter destabilization hit call,ZAK; 10 µM,inactive: 0
same,kinase-Nluc reporter destabilization hit call,ZAP70; 10 µM,inactive: 0
same,number of time points,CDK4; 10 µM,0
same,number of time points,CDK7; 10 µM,0
same,number of time points,CDK9; 10 µM,0
N#CCC1(n2cc(-c3ncnc4[nH]ccc34)cn2)CN(C2CCN(C(=O)c3ccnc(C(F)(F)F)c3F)CC2)C1 [Itacitinib adipate],kinase-Nluc reporter destabilization hit call,STK38; 10 µM,inactive: 0
same,kinase-Nluc reporter destabilization hit call,SYK; 10 µM,inactive: 0
same,kinase-Nluc reporter destabilization hit call,TEC; 10 µM,inactive: 0
same,kinase-Nluc reporter destabilization hit call,TYK2; 10 µM,inactive: 0
same,kinase-Nluc reporter destabilization hit call,ULK3; 10 µM,inactive: 0
same,kinase-Nluc reporter destabilization hit call,YES1; 10 µM,inactive: 0
same,kinase-Nluc reporter destabilization hit call,ZAK; 10 µM,inactive: 0
same,kinase-Nluc reporter destabilization hit call,ZAP70; 10 µM,inactive: 0
same,number of time points,CDK4; 10 µM,0
same,number of time points,CDK7; 10 µM,0
same,number of time points,CDK9; 10 µM,0
C=CC(=O)Nc1cc(Nc2ncc(C(=O)OC(C)C)c(-c3cn(C)c4ccccc34)n2)c(OC)cc1N(C)CCN(C)C [Mobocertinib],kinase-Nluc reporter destabilization hit call,STK38; 10 µM,inactive: 0
same,kinase-Nluc reporter destabilization hit call,SYK; 10 µM,inactive: 0
same,kinase-Nluc reporter destabilization hit call,TEC; 10 µM,inactive: 0
same,kinase-Nluc reporter destabilization hit call,TYK2; 10 µM,inactive: 0
same,kinase-Nluc reporter destabilization hit call,ULK3; 10 µM,inactive: 0
same,kinase-Nluc reporter destabilization hit call,YES1; 10 µM,inactive: 0
same,kinase-Nluc reporter destabilization hit call,ZAK; 10 µM,inactive: 0
same,kinase-Nluc reporter destabilization hit call,ZAP70; 10 µM,inactive: 0
same,number of time points,CDK4; 10 µM,0
same,number of time points,CDK7; 10 µM,0
same,number of time points,CDK9; 10 µM,0
CCN(CC)CC(=O)Nc1c(C)cccc1C [Lidocaine (hydrochloride)],kinase-Nluc reporter destabilization hit call,STK38; 10 µM,inactive: 0
same,kinase-Nluc reporter destabilization hit call,SYK; 10 µM,inactive: 0
same,kinase-Nluc reporter destabilization hit call,TEC; 10 µM,inactive: 0
same,kinase-Nluc reporter destabilization hit call,TYK2; 10 µM,inactive: 0
same,kinase-Nluc reporter destabilization hit call,ULK3; 10 µM,inactive: 0
same,kinase-Nluc reporter destabilization hit call,YES1; 10 µM,inactive: 0
same,kinase-Nluc reporter destabilization hit call,ZAK; 10 µM,inactive: 0
same,kinase-Nluc reporter destabilization hit call,ZAP70; 10 µM,inactive: 0
same,number of time points,CDK4; 10 µM,0
same,number of time points,CDK7; 10 µM,0
same,number of time points,CDK9; 10 µM,0
CNC(=O)c1ccc(Nc2ncc(C(F)(F)F)c(NCc3nccnc3N(C)S(C)(=O)=O)n2)cc1 [Defactinib (hydrochloride)],kinase-Nluc reporter destabilization hit call,STK38; 10 µM,inactive: 0
same,kinase-Nluc reporter destabilization hit call,SYK; 10 µM,inactive: 0
same,kinase-Nluc reporter destabilization hit call,TEC; 10 µM,inactive: 0
same,kinase-Nluc reporter destabilization hit call,TYK2; 10 µM,inactive: 0
same,kinase-Nluc reporter destabilization hit call,ULK3; 10 µM,inactive: 0
same,kinase-Nluc reporter destabilization hit call,YES1; 10 µM,inactive: 0
same,kinase-Nluc reporter destabilization hit call,ZAK; 10 µM,inactive: 0
same,kinase-Nluc reporter destabilization hit call,ZAP70; 10 µM,inactive: 0
same,number of time points,CDK4; 10 µM,0
same,number of time points,CDK7; 10 µM,0
same,number of time points,CDK9; 10 µM,0
CC(=O)Nc1cccc(-n2c(=O)n(C3CC3)c(=O)c3c(Nc4ccc(I)cc4F)n(C)c(=O)c(C)c32)c1 [Trametinib (DMSO solvate)],kinase-Nluc reporter destabilization hit call,STK38; 10 µM,inactive: 0
same,kinase-Nluc reporter destabilization hit call,SYK; 10 µM,inactive: 0
same,kinase-Nluc reporter destabilization hit call,TEC; 10 µM,inactive: 0
same,kinase-Nluc reporter destabilization hit call,TYK2; 10 µM,inactive: 0
same,kinase-Nluc reporter destabilization hit call,ULK3; 10 µM,inactive: 0
same,kinase-Nluc reporter destabilization hit call,YES1; 10 µM,inactive: 0
same,kinase-Nluc reporter destabilization hit call,ZAK; 10 µM,inactive: 0
same,kinase-Nluc reporter destabilization hit call,ZAP70; 10 µM,inactive: 0
same,number of time points,CDK4; 10 µM,0
same,number of time points,CDK7; 10 µM,0
same,number of time points,CDK9; 10 µM,1
CCN(CC)CC(=O)Nc1c(C)cccc1C [Lidocaine],kinase-Nluc reporter destabilization hit call,STK38; 10 µM,inactive: 0
same,kinase-Nluc reporter destabilization hit call,SYK; 10 µM,inactive: 0
same,kinase-Nluc reporter destabilization hit call,TEC; 10 µM,inactive: 0
same,kinase-Nluc reporter destabilization hit call,TYK2; 10 µM,inactive: 0
same,kinase-Nluc reporter destabilization hit call,ULK3; 10 µM,inactive: 0
same,kinase-Nluc reporter destabilization hit call,YES1; 10 µM,inactive: 0
same,kinase-Nluc reporter destabilization hit call,ZAK; 10 µM,inactive: 0
same,kinase-Nluc reporter destabilization hit call,ZAP70; 10 µM,inactive: 0
same,number of time points,CDK4; 10 µM,0
same,number of time points,CDK7; 10 µM,0
same,number of time points,CDK9; 10 µM,0
COc1cc2c(cc1OC)-c1c(C)c3ccc(OC)c(OC)c3c[n+]1CC2 [Dehydrocorydaline],kinase-Nluc reporter destabilization hit call,STK38; 10 µM,inactive: 0
same,kinase-Nluc reporter destabilization hit call,SYK; 10 µM,inactive: 0
same,kinase-Nluc reporter destabilization hit call,TEC; 10 µM,inactive: 0
same,kinase-Nluc reporter destabilization hit call,TYK2; 10 µM,inactive: 0
same,kinase-Nluc reporter destabilization hit call,ULK3; 10 µM,inactive: 0
same,kinase-Nluc reporter destabilization hit call,YES1; 10 µM,inactive: 0
same,kinase-Nluc reporter destabilization hit call,ZAK; 10 µM,inactive: 0
same,kinase-Nluc reporter destabilization hit call,ZAP70; 10 µM,inactive: 0
same,number of time points,CDK4; 10 µM,0
same,number of time points,CDK7; 10 µM,0
same,number of time points,CDK9; 10 µM,0
Cc1[nH]c(/C=C2\C(=O)Nc3ccc(F)cc32)c(C)c1C(=O)NCCN1CCCC1 [Toceranib],kinase-Nluc reporter destabilization hit call,STK38; 2 µM,inactive: 0
same,kinase-Nluc reporter destabilization hit call,SYK; 2 µM,inactive: 0
same,kinase-Nluc reporter destabilization hit call,TEC; 2 µM,inactive: 0
same,kinase-Nluc reporter destabilization hit call,TYK2; 2 µM,inactive: 0
same,kinase-Nluc reporter destabilization hit call,ULK3; 2 µM,inactive: 0
same,kinase-Nluc reporter destabilization hit call,YES1; 2 µM,inactive: 0
same,kinase-Nluc reporter destabilization hit call,ZAK; 2 µM,inactive: 0
same,kinase-Nluc reporter destabilization hit call,ZAP70; 2 µM,inactive: 0
same,number of time points,CDK4; 2 µM,0
same,number of time points,CDK7; 2 µM,0
same,number of time points,CDK9; 2 µM,0

# Laid out differently: entries from further up
smiles	measurement	setting	value
O=C(c1nn(-c2ccc(CN3CCOCC3)cc2)c2c1CS(=O)(=O)c1c(F)cccc1-2)N1CCOCC1	kinase-Nluc reporter destabilization hit call	TYK2; 10 µM	inactive: 0
same	kinase-Nluc reporter destabilization hit call	ULK3; 10 µM	inactive: 0
same	kinase-Nluc reporter destabilization hit call	YES1; 10 µM	inactive: 0
same	kinase-Nluc reporter destabilization hit call	ZAK; 10 µM	inactive: 0
same	kinase-Nluc reporter destabilization hit call	ZAP70; 10 µM	inactive: 0
same	number of time points	CDK4; 10 µM	0
same	number of time points	CDK7; 10 µM	0
same	number of time points	CDK9; 10 µM	0
